Results as given in article doi:10.1101/2021.08.28.457928.
No constants are given. Whether binding was seen depends on the method and setting. In cells and extracts the contact can be indirect. Where a sequence is shown, tags or fusion partners need not be part of it. Blank lines part the entries; values can stand above or below the molecule they belong to.

Protein sequences, listed by entry. Tags and fused reporters are not part of them.
UniProt Q13596: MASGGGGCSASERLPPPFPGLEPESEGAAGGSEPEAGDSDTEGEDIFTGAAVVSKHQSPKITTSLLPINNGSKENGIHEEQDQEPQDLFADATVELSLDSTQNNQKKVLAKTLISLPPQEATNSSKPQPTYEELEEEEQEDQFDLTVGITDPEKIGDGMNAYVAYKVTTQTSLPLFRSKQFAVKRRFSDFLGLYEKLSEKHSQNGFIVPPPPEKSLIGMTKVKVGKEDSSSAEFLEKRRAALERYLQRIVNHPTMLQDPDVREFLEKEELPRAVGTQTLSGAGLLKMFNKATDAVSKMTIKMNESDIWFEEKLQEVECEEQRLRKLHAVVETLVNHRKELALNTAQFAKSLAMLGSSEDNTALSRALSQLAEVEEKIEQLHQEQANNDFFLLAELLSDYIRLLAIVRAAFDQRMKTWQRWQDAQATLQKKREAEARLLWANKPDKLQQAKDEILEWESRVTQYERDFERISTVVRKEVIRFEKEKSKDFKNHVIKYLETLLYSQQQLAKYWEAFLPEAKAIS

What was measured:
[1] = target: T1, GFP-SNX17 (UniProt Q15036); assay: co-IP
T1 sequence: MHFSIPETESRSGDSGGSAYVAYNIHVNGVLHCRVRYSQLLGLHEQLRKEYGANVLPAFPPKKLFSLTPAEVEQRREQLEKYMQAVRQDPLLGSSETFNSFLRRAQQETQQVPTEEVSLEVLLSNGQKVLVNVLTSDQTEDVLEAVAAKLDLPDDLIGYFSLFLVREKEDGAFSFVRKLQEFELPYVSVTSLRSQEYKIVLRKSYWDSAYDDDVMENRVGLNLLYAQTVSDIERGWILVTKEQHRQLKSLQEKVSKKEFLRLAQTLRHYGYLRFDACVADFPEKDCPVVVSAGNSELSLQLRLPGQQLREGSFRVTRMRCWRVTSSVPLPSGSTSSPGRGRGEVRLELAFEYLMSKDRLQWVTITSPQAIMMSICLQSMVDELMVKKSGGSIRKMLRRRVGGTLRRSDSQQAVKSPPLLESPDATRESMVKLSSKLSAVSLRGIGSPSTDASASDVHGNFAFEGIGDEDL

[2] = target: T2, GFP-SNX17, Q15036; assay: co-IP; conditions: remark: other sources report otherwise
T2 chain: T1 sequence

- binding [1]: no binding
Molecule: endogenous SNX1 (from UniProt Q13596 1-522)

- binding [2]: no binding
B1: endogenous SNX5, Q9Y5X3 1-404 (protein)
chain: MAAVPELLQQQEEDRSKLRSVSVDLNVDPSLQIDIPDALSERDKVKFTVHTKTTLPTFQSPEFSVTRQHEDFVWLHDTLIETTDYAGLIIPPAPTKPDFDGPREKMQKLGEGEGSMTKEEFAKMKQELEAEYLAVFKKTVSSHEVFLQRLSSHPVLSKDRNFHVFLEYDQDLSVRRKNTKEMFGGFFKSVVKSADEVLFTGVKEVDDFFEQEKNFLINYYNRIKDSCVKADKMTRSHKNVADDYIHTAACLHSLALEEPTVIKKYLLKVAELFEKLRKVEGRVSSDEDLKLTELLRYYMLNIEAAKDLLYRRTKALIDYENSNKALDKARLKSKDVKLAEAHQQECCQKFEQLSESAKEELINFKRKRVAAFRKNLIEMSELEIKHARNNVSLLQSCIDLFKNN
